Source: US20210330744A1, “Methods and Compositions for Treating Neurodegeneration and Fibrosis” (Temple University-Of The Commonwealth System of Higher …, priority 2017, published 2021)
The name of at least one read-out is uncertain.

By UniProt entry, the sequences of proteins in these tests, tags left out. Residues count along the entry.
UniProt Q3UMR5, 50-350: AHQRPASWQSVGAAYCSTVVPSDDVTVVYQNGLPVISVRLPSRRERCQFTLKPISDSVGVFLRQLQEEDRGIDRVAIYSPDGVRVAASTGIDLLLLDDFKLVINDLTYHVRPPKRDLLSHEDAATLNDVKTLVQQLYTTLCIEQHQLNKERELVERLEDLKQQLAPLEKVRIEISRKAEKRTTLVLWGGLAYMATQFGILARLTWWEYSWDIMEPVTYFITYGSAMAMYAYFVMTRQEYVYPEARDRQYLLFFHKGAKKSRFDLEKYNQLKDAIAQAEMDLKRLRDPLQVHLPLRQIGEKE
UniProt Q8VCX5, 34-477: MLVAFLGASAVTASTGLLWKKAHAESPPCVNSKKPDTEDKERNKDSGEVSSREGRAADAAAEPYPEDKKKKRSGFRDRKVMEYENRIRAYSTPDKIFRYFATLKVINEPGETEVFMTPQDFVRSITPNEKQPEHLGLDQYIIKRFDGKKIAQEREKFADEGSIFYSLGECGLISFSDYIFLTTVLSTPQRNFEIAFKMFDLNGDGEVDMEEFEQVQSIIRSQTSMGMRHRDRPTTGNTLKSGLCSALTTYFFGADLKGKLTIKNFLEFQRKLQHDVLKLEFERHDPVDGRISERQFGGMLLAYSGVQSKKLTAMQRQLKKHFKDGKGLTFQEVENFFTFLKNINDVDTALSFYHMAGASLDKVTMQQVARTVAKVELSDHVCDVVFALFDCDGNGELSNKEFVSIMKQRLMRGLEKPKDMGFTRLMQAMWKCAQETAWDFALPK

Target: T1, mtCU (Mus musculus, UniProt Q3UMR5+Q8VCX5)
T1 construct: After treating wildtype (WT) MEFs with TGFβ for 12 hours, fibroblasts were permeabilized with digitonin; endogenous in cells; host or cells: wild-type (C57/BL6) mouse embryonic fibroblasts, digitonin-permeabilized, with or without 12 h TGFβ
Test: Evaluation of mCa2+ uptake in permeabilized MEFs (Fura-2, Hill fit)
Type: cell-based
Details: WT MEFs treated 12 hours; control cells ~1.5 μM; read-out: calculated Kd ([Ca2+] for 50% maximal mtCU uptake)
Method: Before permeabilization, MEFs were washed in extracellular-like Ca^2+-free buffer (120 mM NaCl, 5 mM KCl, 1 mM KH2PO4, 0.2 mM MgCl2, 0.1 mM EGTA, 20 mM HEPEs-NaOH, pH 7.4). MEFs (1.5 million) were then transferred to intracellular-like medium (ICM) (120 mM KCl, 10 mM NaCl, 1 mM KH2PO4, 20 mM HEPES-Tris, protease inhibitors, 5 mM succinate, 2 μM thapsigargin, 40 μg ml^−1 digitonin, 10 μM CGP-37157 (NCLX inhibitor), pH 7.2). ICM was cleared with Chelex 100 to remove trace Ca^2+. MEFs were gently stirred and 1 μM Fura-2 was added to monitor extra-mitochondrial Ca^2+. At 20 seconds, JC-1 was added to monitor Δψ. Fluorescence signals were monitored in a temperature controlled (37° C.) multi-wavelength-excitation/dual-wavelength-emission spectrofluorometer (Delta RAM, Photon Technology Int.) using 490-nm excitation (ex)/535-nm emission (em) for the JC-1 monomer, 570-nm ex/595-nm em for the J-aggregate of JC-1, and 340- and 380-nm ex/510-nm em for Fura-2. […]
To quantify actual Ca^2+ content, a standard curve of Ca^2+ binding Fura-2 was generated from serial diluted Ca^2+ standards (0.01-120 μM) in ICM. Fura-2 fluorescence ratio was converted to [Ca^2+] by the following equation: [Ca^2+]=Kd*(R−Rmin)/(Rmax−R)*Sf2/Sb2. (Rmin (ratio in 0-Ca^2+)=1.341; Rmax (ratio at saturation)=27.915; Sf2 (380/510 reading in 0-Ca^2+)=15822.14; Sb2 (380/510 reading with Ca^2+ saturation)=1794.32). […]

TGFβ: recombinant mouse Transforming growth factor-β, pro-fibrotic agonist
Kd: 1900 nM
